The values below come from US20100015130A1.

Results are given in words; binding and its absence hold for the method and conditions named. Binding can be weak; no strength is given. For part of these data: In cells and extracts the contact can be indirect. For part of these data: Tags and fused reporters may be left off the sequences shown.

The target in assay [1] is GSK3β as used in the surface plasmon resonance (SPR) binding assays (Homo sapiens (Human)). The assay can be described thus: SPR.
The target is the same in assay [2]. The assay can be described thus: SPR scan, FIG. 16A.
Assay [3] concerns the target His-GSK3β (purified recombinant His-tagged GSK3β, Sigma-Aldrich) (Homo sapiens (Human)). The assay can be described thus: GST pull-down with purified His-GSK3β, Western blot. In general terms: Immunoblotting shows a protein as a band on a membrane.
Assay [4] shares this target. Nature of the assay: GST pull-down, FIG. 4f.
For assay [5] the target is unchanged. Nature of the assay: in vitro binding assay (GST pull-down).
Assay [6] addresses GSK3β as used in the surface plasmon resonance (SPR) binding assays (Homo sapiens (Human)). The assay can be described thus: SPR of overlapping 15-mers.
For assay [7] the target is unchanged. The assay can be described thus: SPR, FIG. 18.

Consider GYMRSTAGSGIGFLSPAVGMPHPSSAGLTGQQSQHSQS [Mouse DISC1 peptide 1 (40-78aa)], for which the binding entry in assay [1] and in assay [2] was “binds” each time.

B1: GST-tagged mouse DISC1 fragment 1-220aa (protein, UniProt Q811T9 1-220, looked up, not shown: a dimerising Fc or GST)
chain: MQGGGPRGAPIHSPSHGADSGHGLPPAVAPQRRRLTRRPGYMRSTAGSGIGFLSPAVGMPHPSSAGLTGQQSQHSQSKAGQCGLDPGSHCQASLVGKPFLKSSLVPAVASEGHLHPAQRSMRKRPVHFAVHSKNDSRQSERLTGSFKPGDSGFWQELLSSDSFKSLAPSLDAPWNKGSRGLKTVKPLASPALNGPADIASLPGFQDTFTSSFSFIQLSLG
For the molecule B1, the binding entry in assay [3], in assay [4] and in assay [5] was “binds” throughout.

As to SFSFIQLSLGAAGER [Murine DISC1 peptide 3 (15-mer, mDISC1 amino acids 211 to 225)], the binding result in assay [6] and in assay [7] was “binds” throughout.

Turning to PADIASLPGFQDTFTSSFSFIQLSLGAAGERGEAEGCLPSREAE [Mouse DISC1 peptide 2 (195-238aa)], the binding entry in assay [1] and in assay [2] was “binds” in each case.

B2: GST-tagged mouse DISC1 fragment 356-595aa (protein, UniProt Q811T9 356-595, looked up, not shown: a dimerising Fc or GST)
chain: LKLQKCQEKVVEDGDYDTAETLRQRLEELEQEKGRLSWALPSQQPALRSFLGYLAAQIQVALHGATQRAGSDDPEAPLEGQLRTTAQDSLPASITRRDWLIREKQRLQKEIEALQARMSALEAKEKRLSQELEEQEVLLRWPGCDLMALVAQMSPGQLQEVSKALGETLTSANQAPFQVEPPETLRSLRERTKSLNLAVRELTAQVCSGEKLCSSLRRRLSDLDTRLPALLEAKMLALSG
In the case of B2, the binding result in assay [3], in assay [4] and in assay [5] was “binds” throughout.
